Reference: paper PMC7086158

Protein sequences, listed by entry. Tags and fused reporters are not part of them.
UniProt Q9UQ35: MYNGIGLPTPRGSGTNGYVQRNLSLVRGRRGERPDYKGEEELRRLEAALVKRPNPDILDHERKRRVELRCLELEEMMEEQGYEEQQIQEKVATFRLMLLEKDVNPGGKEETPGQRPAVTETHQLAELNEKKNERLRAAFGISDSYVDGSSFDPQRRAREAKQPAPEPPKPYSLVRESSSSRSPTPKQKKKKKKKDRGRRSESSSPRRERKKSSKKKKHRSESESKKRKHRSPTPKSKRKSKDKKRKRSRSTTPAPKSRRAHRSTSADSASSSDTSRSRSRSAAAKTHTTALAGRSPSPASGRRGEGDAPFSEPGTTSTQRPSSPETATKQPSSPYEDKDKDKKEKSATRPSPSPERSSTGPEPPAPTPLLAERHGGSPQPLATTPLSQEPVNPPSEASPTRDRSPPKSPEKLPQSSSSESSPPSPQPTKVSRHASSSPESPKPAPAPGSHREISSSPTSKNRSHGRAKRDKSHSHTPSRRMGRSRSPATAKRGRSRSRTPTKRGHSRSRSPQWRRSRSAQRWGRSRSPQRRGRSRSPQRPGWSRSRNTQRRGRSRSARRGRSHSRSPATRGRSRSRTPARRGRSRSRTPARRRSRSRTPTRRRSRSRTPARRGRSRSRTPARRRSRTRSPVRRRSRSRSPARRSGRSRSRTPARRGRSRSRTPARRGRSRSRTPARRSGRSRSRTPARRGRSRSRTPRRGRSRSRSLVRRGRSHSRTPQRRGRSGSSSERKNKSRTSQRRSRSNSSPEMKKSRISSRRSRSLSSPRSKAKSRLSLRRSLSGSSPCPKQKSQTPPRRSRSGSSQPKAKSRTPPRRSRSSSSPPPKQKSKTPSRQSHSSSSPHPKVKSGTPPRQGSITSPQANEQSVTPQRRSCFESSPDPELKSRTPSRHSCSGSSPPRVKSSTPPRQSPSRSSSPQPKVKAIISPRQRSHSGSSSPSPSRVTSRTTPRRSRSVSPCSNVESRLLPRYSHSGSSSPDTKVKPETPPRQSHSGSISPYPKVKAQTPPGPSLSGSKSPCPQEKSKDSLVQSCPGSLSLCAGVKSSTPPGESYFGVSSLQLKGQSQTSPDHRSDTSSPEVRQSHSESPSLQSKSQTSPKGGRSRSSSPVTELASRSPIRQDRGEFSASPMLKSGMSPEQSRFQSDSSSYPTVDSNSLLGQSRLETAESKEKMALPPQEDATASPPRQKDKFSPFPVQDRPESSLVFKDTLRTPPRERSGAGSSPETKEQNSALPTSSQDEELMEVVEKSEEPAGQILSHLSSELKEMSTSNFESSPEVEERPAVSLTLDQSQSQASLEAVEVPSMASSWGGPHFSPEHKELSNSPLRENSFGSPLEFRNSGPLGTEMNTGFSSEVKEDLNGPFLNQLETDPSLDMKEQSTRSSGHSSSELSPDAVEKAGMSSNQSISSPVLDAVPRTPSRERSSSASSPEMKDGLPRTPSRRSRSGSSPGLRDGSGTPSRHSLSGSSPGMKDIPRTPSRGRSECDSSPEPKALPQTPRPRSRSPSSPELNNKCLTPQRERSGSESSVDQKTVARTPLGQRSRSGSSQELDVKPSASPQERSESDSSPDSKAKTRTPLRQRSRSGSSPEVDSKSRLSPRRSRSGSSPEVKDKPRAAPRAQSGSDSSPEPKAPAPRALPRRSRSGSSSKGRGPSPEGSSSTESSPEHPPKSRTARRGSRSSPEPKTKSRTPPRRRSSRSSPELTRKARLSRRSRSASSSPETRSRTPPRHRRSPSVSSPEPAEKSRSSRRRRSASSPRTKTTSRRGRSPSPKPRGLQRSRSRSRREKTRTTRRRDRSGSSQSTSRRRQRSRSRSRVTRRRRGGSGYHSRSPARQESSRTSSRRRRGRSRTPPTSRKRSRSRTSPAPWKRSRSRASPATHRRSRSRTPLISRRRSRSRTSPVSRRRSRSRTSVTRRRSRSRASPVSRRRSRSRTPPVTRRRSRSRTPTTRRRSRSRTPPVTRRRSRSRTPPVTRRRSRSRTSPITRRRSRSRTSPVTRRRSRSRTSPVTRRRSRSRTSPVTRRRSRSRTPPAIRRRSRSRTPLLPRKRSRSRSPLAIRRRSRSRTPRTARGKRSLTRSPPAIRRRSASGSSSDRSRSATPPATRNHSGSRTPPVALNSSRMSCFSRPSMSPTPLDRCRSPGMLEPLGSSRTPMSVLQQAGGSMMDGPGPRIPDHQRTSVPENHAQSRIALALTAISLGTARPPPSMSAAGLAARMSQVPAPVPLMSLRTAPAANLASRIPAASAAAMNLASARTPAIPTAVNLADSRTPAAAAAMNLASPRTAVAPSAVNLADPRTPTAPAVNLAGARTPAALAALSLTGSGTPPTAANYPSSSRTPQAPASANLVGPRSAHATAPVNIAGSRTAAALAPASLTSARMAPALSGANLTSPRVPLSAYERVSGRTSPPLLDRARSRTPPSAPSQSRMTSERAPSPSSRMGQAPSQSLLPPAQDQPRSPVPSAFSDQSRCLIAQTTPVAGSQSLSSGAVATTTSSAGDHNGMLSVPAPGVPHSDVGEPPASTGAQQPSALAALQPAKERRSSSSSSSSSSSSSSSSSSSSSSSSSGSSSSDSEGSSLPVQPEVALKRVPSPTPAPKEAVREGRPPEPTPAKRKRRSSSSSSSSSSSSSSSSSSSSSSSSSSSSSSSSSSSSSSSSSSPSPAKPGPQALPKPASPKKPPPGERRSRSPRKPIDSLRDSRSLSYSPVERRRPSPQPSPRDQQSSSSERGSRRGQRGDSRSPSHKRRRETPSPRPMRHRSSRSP
UniProt Q12972: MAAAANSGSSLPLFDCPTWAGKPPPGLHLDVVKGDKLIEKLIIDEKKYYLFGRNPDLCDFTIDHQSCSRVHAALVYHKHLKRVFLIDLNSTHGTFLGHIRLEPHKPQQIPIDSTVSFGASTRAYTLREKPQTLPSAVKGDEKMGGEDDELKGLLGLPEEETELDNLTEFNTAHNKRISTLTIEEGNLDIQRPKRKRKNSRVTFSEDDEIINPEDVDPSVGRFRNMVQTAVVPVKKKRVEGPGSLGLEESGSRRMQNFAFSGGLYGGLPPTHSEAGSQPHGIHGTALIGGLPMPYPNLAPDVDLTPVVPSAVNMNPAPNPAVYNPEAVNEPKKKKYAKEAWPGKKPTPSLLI

Columns and labels:
Assay in all cases: affinity purification with mass spectrometry; lysates of U2OS cells with N- or C-terminally FLAG-tagged murine Nuak1 on anti-FLAG M2 magnetic beads overnight, eluted with 3X FLAG peptide; enrichment over empty-vector cells
[1] = target: T1, C-terminally FLAG-tagged murine Nuak1 (mouse) (UniProt Q641K5)
T1 sequence: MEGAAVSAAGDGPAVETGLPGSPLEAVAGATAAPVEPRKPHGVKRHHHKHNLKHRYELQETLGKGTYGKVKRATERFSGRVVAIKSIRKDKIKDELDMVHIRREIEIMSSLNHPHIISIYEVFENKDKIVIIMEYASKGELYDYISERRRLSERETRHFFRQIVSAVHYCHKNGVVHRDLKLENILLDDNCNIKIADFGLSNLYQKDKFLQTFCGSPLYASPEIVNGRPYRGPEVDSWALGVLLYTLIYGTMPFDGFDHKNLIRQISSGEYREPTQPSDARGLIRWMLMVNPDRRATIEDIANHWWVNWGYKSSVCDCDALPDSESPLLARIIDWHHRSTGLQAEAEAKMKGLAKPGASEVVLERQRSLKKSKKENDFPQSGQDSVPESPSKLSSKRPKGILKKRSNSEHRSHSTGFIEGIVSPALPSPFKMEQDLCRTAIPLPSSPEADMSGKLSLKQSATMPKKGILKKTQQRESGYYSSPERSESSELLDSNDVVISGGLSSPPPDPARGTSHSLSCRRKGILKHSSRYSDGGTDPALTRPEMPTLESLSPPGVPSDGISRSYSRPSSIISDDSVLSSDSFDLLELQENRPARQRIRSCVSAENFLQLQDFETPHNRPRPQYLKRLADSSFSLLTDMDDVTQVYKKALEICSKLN

[2] = target: T2, N-terminally FLAG-tagged murine Nuak1 (mouse) (UniProt Q641K5)
T2 sequence: T1 sequence

[3] = target: T1, C-terminally FLAG-tagged murine Nuak1 (mouse); remark: listed apart in the source
[4] = target: T2, N-terminally FLAG-tagged murine Nuak1 (mouse); remark: listed apart in the source

binding [1]: binds
binding [2]: binds
Molecule: SRRM2 (from UniProt Q9UQ35 1-2752)

binding [1]: no binding
binding [2]: no binding
Molecule: NIPP1 (nuclear inhibitor of PP1) (from UniProt Q12972 1-351)

binding [3]: binds
binding [4]: binds
B1: PNUTS (PP1-nuclear targeting subunit) (protein, UniProt Q96QC0 1-940)
chain: MGSGPIDPKELLKGLDSFLNRDGEVKSVDGISKIFSLMKEARKMVSRCTYLNILLQTRSPEILVKFIDVGGYKLLNNWLTYSKTTNNIPLLQQILLTLQHLPLTVDHLKQNNTAKLVKQLSKSSEDEELRKLASVLVSDWMAVIRSQSSTQPAEKDKKKRKDEGKSRTTLPERPLTEVKAETRAEEAPEKKREKPKSLRTTAPSHAKFRSTGLELETPSLVPVKKNASTVVVSDKYNLKPIPLKRQSNVAAPGDATPPAEKKYKPLNTTPNATKEIKVKIIPPQPMEGLGFLDALNSAPVPGIKIKKKKKVLSPTAAKPSPFEGKTSTEPSTAKPSSPEPAPPSEAMDADRPGTPVPPVEVPELMDTASLEPGALDAKPVESPGDPNQLTRKGRKRKSVTWPEEGKLREYFYFELDETERVNVNKIKDFGEAAKREILSDRHAFETARRLSHDNMEEKVPWVCPRPLVLPSPLVTPGSNSQERYIQAEREKGILQELFLNKESPHEPDPEPYEPIPPKLIPLDEECSMDETPYVETLEPGGSGGSPDGAGGSKLPPVLANLMGSMGAGKGPQGPGGGGINVQEILTSIMGSPNSHPSEELLKQPDYSDKIKQMLVPHGLLGPGPIANGFPPGGPGGPKGMQHFPPGPGGPMPGPHGGPGGPVGPRLLGPPPPPRGGDPFWDGPGDPMRGGPMRGGPGPGPGPYHRGRGGRGGNEPPPPPPPFRGARGGRSGGGPPNGRGGPGGGMVGGGGHRPHEGPGGGMGNSSGHRPHEGPGGGMGSGHRPHEGPGGSMGGGGGHRPHEGPGGGISGGSGHRPHEGPGGGMGAGGGHRPHEGPGGSMGGSGGHRPHEGPGHGGPHGHRPHDVPGHRGHDHRGPPPHEHRGHDGPGHGGGGHRGHDGGHSHGGDMSNRPVCRHFMMKGNCRYENNCAFYHPGVNGPPLP

binding [3]: no binding
binding [4]: no binding
B2: Repo-Man (protein, UniProt Q69YH5 1-1023)
chain: MDANSKDKPPETKESAMNNAGNASFILGTGKIVTPQKHAELPPNPCTPDTFKSPLNFSTVTVEQLGITPESFVRNSAGKSSSYLKKCRRRSAVGARGSPETNHLIRFIARQQNIKNARKSPLAQDSPSQGSPALYRNVNTLRERISAFQSAFHSIKENEKMTGCLEFSEAGKESEMTDLTRKEGLSACQQSGFPAVLSSKRRRISYQRDSDENLTDAEGKVIGLQIFNIDTDRACAVETSVDLSEISSKLGSTQSGFLVEESLPLSELTETSNALKVADCVVGKGSSDAVSPDTFTAEVSSDAVPDVRSPATPACRRDLPTPKTFVLRSVLKKPSVKMCLESLQEHCNNLYDDDGTHPSLISNLPNCCKEKEAEDEENFEAPAFLNMRKRKRVTFGEDLSPEVFDESLPANTPLRKGGTPVCKKDFSGLSSLLLEQSPVPEPLPQPDFDDKGENLENIEPLQVSFAVLSSPNKSSISETLSGTDTFSSSNNHEKISSPKVGRITRTSNRRNQLVSVVEESVCNLLNTEVQPCKEKKINRRKSQETKCTKRALPKKSQVLKSCRKKKGKGKKSVQKSLYGERDIASKKPLLSPIPELPEVPEMTPSIPSIRRLGSGYFSSNGKLEEVKTPKNPVKRKDLLRHDPDLHMHQGYDKYDVSEFCSYIKSSSSLGNATSDEDPNTNIMNINENKNIPKAKNKSESENEPKAGTDSPVSCASVTEERVASDSPKPALTLQQGQEFSAGGQNAENLCQFFKISPDLNIKCERKDDFLGAAEGKLQCNRLMPNSQKDCHCLGDVLIENTKESKSQSEDLGRKPMESSSVVSCRDRKDRRRSMCYSDGRSLHLEKNGNHTPSSSVGSSVEISLENSELFKDLSDAIEQTFQRRNSETKVRRSTRLQKDLENEGLVWISLPLPSTSQKAKRRTICTFDSSGFESMSPIKETVSSRQKPQMAPPVSDPENSQGPAAGSSDEPGKRRKSFCISTLANTKATSQFKGYRRRSSLNGKGESSLTALERIEHNGERKQ

Like-named read-outs stand apart in the source and are kept apart here. Results are given in words; binding and its absence hold for the method and conditions named. In cells and extracts the contact can be indirect. A yes stands for co-enrichment or nearness to the bait. Other partners may have been found. A no says only that the protein was not detected with the bait. Tags and fused reporters may be left off the sequences shown. One block for each molecule: values may come before it.
